Measured values published in PubChem BioAssay AID1508600 (Functional Genomics Laboratory (NCATS/FGL), 2020).
About 3,700 (7%) of roughly 53,000 sequences were called active.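 The calls were made as follows: active = gene knockdowns whose robust z-score for IL-1 alpha signal is at least 2 or at most -2, so actives lie on both sides; inactive = the rest.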 The list shows a part of the results.

Experiment: Components of the Cytosolic LPS Sensing Pathway: Gene Identification via Genome-wide siRNA Screen;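 also: robust z of the log signal after scaling to non-targeting control siRNA wells of the plate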
Settings: RAW264.7 macrophages, IL-1a HTRF, actives lie on both sides, screened at 100 nM (by protocol), cells primed 5 h with Pam3CSK4 first
Method in brief: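 Mouse macrophage line RAW264.7 is transfected with siRNA (100 nM final), grown 48h, primed with TLR ligand Pam3CSK4 5 h and given intracellular LipidA 24 h. IL-1a in supernatant is read by HTRF and viability by luminescence.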
For GGAGUUUUACGGACUGCUGTT against Pard6b, the z-score was inactive: 0.984.
With GGGCAUGCAAUGUUCAUGCTT against Rho the z-score was inactive: 0.095.
In the case of GCCUUGCCCUUGUGUUUCUTT against Tomm6, the z-score is reported as inactive: 0.0921.
With GACCACCUGCUAAUGGGAGTT against Prp15 the z-score was inactive: 0.145.
In the case of GGCUUUGCUUUCCUUACUUTT against Rbmy, the z-score is reported as inactive: -0.326.
In the case of GGGAUCCUCUUGACAUUCCTT against Epdr1, the z-score is reported as active: 3.87.
In the case of GGUACUUUUCUCACUUCUATT against Srd5a3, the z-score is reported as inactive: -0.972.
For GGAGACGAGAAACAAACCCTT against Diaph2, the z-score was inactive: 1.68.
With GGAGAAUGUGCCUACUUGATT against Clec2e the z-score was inactive: -0.97.
In the case of GCGGAUAAGAUUGAUGUAGTT against Degs1, the z-score is reported as inactive: -0.592.
In the case of GGACAGAAAAUGUGAAAAGTT against Mdfi, the z-score is reported as inactive: -1.14.
With CCACAUUGGAACAAAGAGUTT against Lctl the z-score was inactive: -0.558.
For GCACAAAUCGAAUUGGCAUTT against Tgm3, the z-score was inactive: 0.421.
For CCAGAAUGCUAGACACUGCTT against Clec4b2, the z-score was inactive: 0.0683.
For GGUCCUUCCUCAGAUCCCUTT against Amdhd2, the z-score was inactive: -1.13.
In the case of GGAAAUUCAAAAAGUGUGUTT against Aplf, the z-score is reported as active: -2.25.
For CGUAUUGGAAAGACUGCUUTT against Poldip3, the z-score was inactive: 1.48.
In the case of GGGCUCACUCUGUCUCUACTT against Rpp25l, the z-score is reported as inactive: -0.378.
For GGCUGUUUUCUGUGCUACATT against Olfr298, the z-score was inactive: 0.304.
For CCAUGGCAGGCAAUUUGAUTT against Olfr1254, the z-score was inactive: -0.174.
In the case of GAUGGAUCUUUAUAAGCAGTT against Wfdc18, the z-score is reported as inactive: -0.768.
For GGAGCAGCUGCACUUGUAUTT against Nkiras1, the z-score was inactive: -0.779.
For CGUCUCUGAUAUUGUCGGCTT against Fbl, the z-score was inactive: 1.14.
For GCGAUGUUAGUAAUACAACTT against Six1, the z-score was inactive: 0.494.
For GGCUCAGGCAUUGUCCUGUTT against Il10ra, the z-score was inactive: -1.63.
In the case of GUAUAUCUUUGGCUGGGUGTT against Olfr460, the z-score is reported as inactive: -0.388.
For CGAGUUCAAACCGUCCUCUTT against Sdhc, the z-score was inactive: 0.105.
For CCCUAAAACCAGGUAUCAATT against Vdac1, the z-score was inactive: 0.208.
In the case of GACAGCAACGUGAAAUUAGTT against Xlr, the z-score is reported as inactive: -0.828.
In the case of GGGCUGCAUUACACAAAUGTT against Olfr1496, the z-score is reported as inactive: 0.266.
With “CCGUCUGGCCAGUGAAAUUTT against 1700019D03Rik” the z-score was inactive: 1.23.
In the case of CGUGCAAGCAGUGAUUUUGTT against Smpx, the z-score is reported as inactive: -1.33.
In the case of GGUUGCUUCCUCUUAAUUUTT against Eda, the z-score is reported as inactive: -0.183.
With GCAGGUCAACUGUUUUAUCTT against Bcap31 the z-score was inactive: 1.06.
In the case of GGGUCAGAGUUUUUCCAUCTT against Otog, the z-score is reported as active: 2.72.
In the case of GGAUGUAAACGAAUGUGCUTT against Lrp4, the z-score is reported as inactive: 0.74.
For UACAGUAGAGUCAUUUUCUTT against Vmn1r179, the z-score was inactive: -0.47.
With GCCCUUACCGAAGAAUUAATT against Lonrf2 the z-score was inactive: 0.531.
For GCCUGGUGUAUGCUAAUGGTT against Kcp, the z-score was inactive: 0.98.
In the case of GCACCUCUUGGACAAAAUUTT against Tsc1, the z-score is reported as inactive: -1.59.
With GGGUGGCAUCAUGCAAAGATT against Hdac8 the z-score was inactive: 1.4.
With GGAAAAACUCCUUUUCCACTT against Shcbp1 the z-score was inactive: 0.292.
With GGUUUAAGAAUGAAGUGGATT against Mtmr3 the z-score was inactive: -1.18.
With GGUUUUGGUCUCACUUUAATT against Magix the z-score was inactive: 0.237.
In the case of GCGACUCCUAUAAUUUCUATT against Rpa3, the z-score is reported as active: -2.17.
With GGGCCUUCACACUUCACUUTT against Ost4 the z-score was inactive: 0.125.
With GCCGUCAGACAAGGAGGAATT against Magi1 the z-score was active: 2.43.
With GGCCUGUCCAGUGAUGAUGTT against Paxbp1 the z-score was inactive: -1.79.
In the case of CCCUCUCUGGGACUACAUATT against Zfp395, the z-score is reported as inactive: 0.00687.
For GCAUGCGUGAGAAACUGAUTT against Clec2e, the z-score was inactive: -0.152.
With GGAGGAAGCCAUCAUCAUGTT against Ndufa13 the z-score was inactive: -1.59.
In the case of GGUAAAUCUCAGCUUUUCUTT against Pcdhga3, the z-score is reported as inactive: 0.785.
For GCUUGUGUCACCUACGGAATT against Mterf2, the z-score was inactive: 0.944.
With GGCUACUCAGUCCUAAGCATT against Kcns2 the z-score was inactive: 0.268.
In the case of CCCAUAGCUGAGCCUAACUTT against Dab2, the z-score is reported as inactive: -0.537.
In the case of GGAUGCAUGGCUCAAUAUUTT against Olfr1164, the z-score is reported as active: 2.01.
With CCUCAUUUCCAAACUCAAATT against Fbxw13 the z-score was inactive: -0.491.
With GGAGGUCAGUGUGACUUCATT against Taf1c the z-score was inactive: -0.662.
With GGCCCUCAUCUUCAACAAGTT against Erlin2 the z-score was inactive: -0.17.
For GCAUCGCUAAUCCUGAGUUTT against Itgb2, the z-score was inactive: -0.461.
With GGCAGAGAAAAGAAGAAGATT against Abcb4 the z-score was inactive: 1.59.
In the case of GGUUGCUAGUGCUAAGGACTT against Pdlim2, the z-score is reported as inactive: 0.245.
In the case of GGUUUUGGGCACAGCUGGUTT against Cryz, the z-score is reported as inactive: -0.74.
For GCGAGCCUUUGAGAAGAAUTT against Emx1, the z-score was inactive: -1.45.
With GCUGUUCUAUCAGACCUUUTT against Cyp2b10 the z-score was inactive: -0.236.
With GGAUCGUUUCCUCUCAUCATT against Cd4 the z-score was inactive: -0.683.
For GGAGCAUAAAAGAGAAAGATT against Jdp2, the z-score was inactive: -0.0101.
For GCAGAGGGCAACUCGUAAGTT against Gm6034, the z-score was inactive: -0.843.
In the case of GGCAAAAUCGGAGACUUUCTT against Exosc10, the z-score is reported as inactive: -0.623.
For GCGGAGAGCGAUGAUCUUUTT against Pfkfb4, the z-score was inactive: 0.136.
With CCUGCUCAACGGAGACCAUTT against Hmx3 the z-score was active: 3.47.
For CGAGUGGCUUUUAAAAGGUTT against Slc10a7, the z-score was inactive: 0.128.
In the case of GGCCCACUUUAUCAUGAAUTT against Zpr1, the z-score is reported as inactive: -0.585.
With GGACUGUCCUCCAAUUUGCTT against Nat8f3 the z-score was active: -2.6.
In the case of GGCACACACUCCCUGACAATT against Cst3, the z-score is reported as inactive: -0.863.
For GGGUGCUUACAGAAUAUCUTT against Ms4a19, the z-score was inactive: 1.07.
For CCUAAUGUACACUAACUAUTT against Hsd17b14, the z-score was inactive: 1.84.
In the case of GGGCCCAUCUUUUUCUACATT against Dpp7, the z-score is reported as inactive: -0.0345.
For GUGCCUUUGUGGUCUUCCUTT against Tmem179, the z-score was inactive: -1.16.
In the case of GGCUUAGUUGGCUAUUACATT against Tbc1d12, the z-score is reported as inactive: 1.01.
In the case of GGCUCAGUUAAACUUACUGTT against Pak2, the z-score is reported as inactive: 0.195.
For GCCUGAUCUACUGUGGUCCTT against Olfr1347, the z-score was inactive: -0.167.
With CGCACAUGUAGUUAAUAAATT against Iqcg the z-score was inactive: -0.96.
In the case of GCUUGAGCUUAUUAAUGUUTT against Anks1b, the z-score is reported as inactive: 0.708.
For CCUUAAGAUGAGCAUUGCUTT against Chchd5, the z-score was inactive: -0.139.
For GCUGAAUGCGACAUUUAUATT against Hk2, the z-score was inactive: 0.668.
For GCUGGGAAAUCACACUAAGTT against Olfr1427, the z-score was inactive: 0.12.
For GGAAGUCACUAAUGAAAUGTT against Tbx19, the z-score was inactive: 0.0557.
In the case of GGUGGCCAAGAAAACAUGUTT against Rims3, the z-score is reported as inactive: 0.12.
With GCCACUUUACCAAACGACATT against Pglyrp2 the z-score was inactive: 1.28.
For GGAGGAAGUGUUCUUUUCCTT against Psg17, the z-score was inactive: -0.169.
In the case of GCAACACAAGAUUGUAUUGTT against Rif1, the z-score is reported as inactive: -0.439.
In the case of “AGUGAAACUAAACUGGAGUTT against 2610318N02Rik”, the z-score is reported as inactive: 1.41.
With GGAAGAGACGCAAUAAGUGTT against Borcs5 the z-score was inactive: 0.74.
For CGUGGUGACUAAGGAUUAUTT against Slc6a20b, the z-score was inactive: -1.86.
With GGUUUUCCGGACAGACUUGTT against Jade2 the z-score was inactive: 1.25.
In the case of GCCCUACGGACAAACAGCATT against Zfp790, the z-score is reported as inactive: -1.68.
For CCAGGAUCCUGUUUCUGACTT against AF067061, the z-score was active: 2.19.
With GGAUGGAGAGAACUACUUATT against Gltpd2 the z-score was inactive: 0.999.
With GGUGAUUCCAGACUCGGAUTT against Pdzd11 the z-score was inactive: -1.26.
For “GGCAUAACCAAAAGAAAGUTT against 4933427E11Rik”, the z-score was inactive: 0.648.
In the case of GGAAACUUUUACUUCACAGTT against P3h1, the z-score is reported as inactive: -0.322.
In the case of GGUGGGAGUAGUGUUUGUGTT against Ly6f, the z-score is reported as inactive: 1.33.
With CCUGAGAUUUCCUAACAUCTT against Prr11 the z-score was inactive: -0.281.
In the case of GGCCACUCAACUCUGUACUTT against Atxn7l1, the z-score is reported as inactive: 1.86.
With GGUCAACCAUUCCUCUUGATT against Ccdc9b the z-score was inactive: 0.409.
For GGUUCUGUGAAUUCUUUAATT against U90926, the z-score was inactive: -0.154.
